PubChem BioAssay AID1224828, NIAID | 2016
Aim: 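Find genes required for NF-kappaB p65 moving into the nucleus after LPS in mouse macrophages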 (primary screen). Cells: mouse RAW264.7 G9 macrophage reporter cells (GFP-p65, Tnf promoter-mCherry). Knock-down reagent: siRNA pool against mouse genes, 100 nM. Time to read-out: 2 days siRNA transfection, then 40 min LPS before fixation. Conditions: LPS (Salmonella minnesota R595) at 10 ng/ml. Measurement: 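Microscopy ratio of nuclear to perinuclear-ring GFP-p65 signal, scaled to the plate median; gene score is the average of two replicate robust z-scores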. Scale: p65 translocation robust z-score: higher = more nuclear NF-kappaB p65 after LPS than the plate median; nuclear/cytoplasmic p65 ratio: higher = more nuclear NF-kappaB p65. Hit rule: 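Active if robust z is above 3.3 (negative regulators) or below -1.56, the Tlr4 control median (positive regulators); activity score 50 or more; control wells not called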. Calls: active = hit (p65 shift raised or lowered); inactive = no clear change.
In all, the deposit lists about 17,000 reagents; shown is an unselected part. Over the whole deposit, 762 (4.5%) got an active call. 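Active calls include both raised and lowered p65 entry, mostly lowered; wells with fewer than 50 cells lack a z-score.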 Raw values vary from plate to plate and are shown uncorrected. A number with no mark means an inactive call. Reagents against one gene are numbered here.

target | reagent | p65 translocation robust z-score | nuclear/cytoplasmic p65 ratio, rep 1 | nuclear/cytoplasmic p65 ratio, rep 2 | low cell count flag
Rnase4 (ribonuclease, RNase A family 4) | 1 | 0.64 | 1.29 | 1.29 | enough cells to score
Hcls1 (hematopoietic cell specific Lyn substrate 1) | 1 | 1.17 | 1.76 | 1.77 | enough cells to score
Eomes (eomesodermin) | 1 | -0.95 | 1.44 | 1.24 | enough cells to score
Exoc5 (exocyst complex component 5) | 1 | 0.71 | 1.7 | 1.75 | enough cells to score
Abhd3 (abhydrolase domain containing 3) | 1 | -0.87 | 1.47 | 1.5 | enough cells to score
Spinkl (serine protease inhibitor, Kazal type-like) | 1 | 0.79 | 1.48 | 1.71 | enough cells to score
Osgin1 (oxidative stress induced growth inhibitor 1) | 1 | – | 1.69 | 1.31 | fewer than 50 cells per well; well left out of scoring
Rasl10a (RAS-like, family 10, member A) | 1 | -0.23 | 1.57 | 1.59 | enough cells to score
Cdc42bpb (CDC42 binding protein kinase beta) | 1 | 0.71 | 1.77 | 1.5 | enough cells to score
Mrpl57 (mitochondrial ribosomal protein L57) | 1 | 0.4 | 1.79 | 1.7 | enough cells to score
Zbtb8a (zinc finger and BTB domain containing 8a) | 1 | -1.23 | 1.24 | 1.3 | enough cells to score
Jph4 (junctophilin 4) | 1 | -0.05 | 1.36 | 1.6 | enough cells to score
Or12e7 (olfactory receptor family 12 subfamily E member 7) | 1 | -1.58 (active) | 1.4 | 1.36 | enough cells to score
Rex1bd (required for excision 1-B domain containing) | 1 | 0.34 | 1.29 | 1.3 | enough cells to score
Cst13 (cystatin 13) | 1 | 2.08 | 1.58 | 1.69 | enough cells to score
Psip1 (PC4 and SFRS1 interacting protein 1) | 1 | -0.67 | 1.3 | 1.13 | enough cells to score

A stretch from the list above:
target | reagent | p65 translocation robust z-score | nuclear/cytoplasmic p65 ratio, rep 1 | nuclear/cytoplasmic p65 ratio, rep 2 | low cell count flag
Rex1bd (required for excision 1-B domain containing) | 1 | 0.34 | 1.29 | 1.3 | enough cells to score
Cst13 (cystatin 13) | 1 | 2.08 | 1.58 | 1.69 | enough cells to score

The list goes on:
target | reagent | p65 translocation robust z-score | nuclear/cytoplasmic p65 ratio, rep 1 | nuclear/cytoplasmic p65 ratio, rep 2 | low cell count flag
Ccs (copper chaperone for superoxide dismutase) | 1 | -0.67 | 1.21 | 1.29 | enough cells to score
Ccser2 (coiled-coil serine rich 2) | 1 | – | 1.4 | 1.33 | fewer than 50 cells per well; well left out of scoring
Mon1b (MON1 homolog B, secretory traffciking associated) | 1 | 1.69 | 1.58 | 1.8 | enough cells to score
Atxn7 (ataxin 7) | 1 | -0.76 | 1.4 | 1.41 | enough cells to score
Prxl2c (peroxiredoxin like 2C) | 1 | 0.5 | 1.57 | 1.64 | enough cells to score
Snx4 (sorting nexin 4) | 1 | -0.56 | 1.32 | 1.19 | enough cells to score
Vmn1r62 (vomeronasal 1 receptor 62) | 1 | -0.11 | 1.38 | 1.1 | enough cells to score
Vmn1r62 (vomeronasal 1 receptor 62) | 2 | -0.41 | 1.34 | 1.18 | enough cells to score
